Measurements as given in PubChem BioAssay AID540276 (National Center for Advancing Translational Sciences (NCATS), 2011).
Out of some 300,000 compounds screened, about 5,400 (1.8%) were called active. Inconclusive results, whose numbers are uncertain, are shown with a selection of clear calls. The call rests on the fitted dose curve; tested in HEK293 cells. Potencies beside an inconclusive call are fits to weak or partial responses and may not hold up.

assay: qHTS for inhibitors of binding or entry into cells for Marburg Virus; settings: Marburg virus pseudotyped entry inhibition, cell reporter; activity change, negative = inhibition: at 37.8 µM (top of the series) unless noted
On the % scale 0 is the no-effect control and ±100 the full control effect; potency means the concentration at half of the fitted maximal effect.

Compound	Potency	activity change, negative = inhibition
Cc1ccc(NC(=O)C2C3C=CC4(O3)C2C(=O)N(CCCN2CCOCC2)C4C(=O)NC2CCCCC2)cc1Cl (centres undefined)	inconclusive: 2 µM [activator, partial curve, poor fit]	–
COc1ccc(C(=O)COC(=O)CCN2C(=O)C3C4C=CC(C5CC45)C3C2=O)cc1 (centres undefined)	–	inactive: 8.4%
Cc1cc(C)c(C(=O)/C=C/c2ccc(C(C)C)cc2)c(=O)[nH]1	inconclusive: 3.55 µM [inhibitor, partial curve, poor fit]	–
CN(c1ccccc1)S(=O)(=O)c1cccc(NC(=O)c2ccc(=O)[nH]n2)c1	inconclusive: 20 µM [inhibitor, partial curve, poor fit]	–
CCCCNC(=O)c1ccc(N2CCC3(CC2)OCCO3)c([N+](=O)[O-])c1	–	inactive: -6.38%
Cc1cc(=O)n2nc(N3CCC(C(=O)Nc4ccc(C(C)C)cc4)CC3)sc2n1	–	inactive: 2.27% [at 46.1 µM]
O=[N+]([O-])c1ccccc1/C=N/NC1=NS(=O)(=O)c2ccccc21	–	inactive: 0.065% [at 46.1 µM]
Oc1ccc(/C=N/NC(=S)Nc2cccnc2)cc1O	inconclusive: 1.12 µM [activator, single point]	–
Cc1cccn2c(=O)nc(SCC(=O)Nc3ccc4c(c3)OCO4)nc12	inconclusive: 1.26 µM [inhibitor, single point]	–
COc1ccc(NC(=O)c2cccc3ccccc23)cc1	inconclusive: 1.12 µM [activator, partial curve, poor fit]	–
COC(=O)c1cc2ccccc2oc1=O	inconclusive: 0.092 µM [inhibitor, full curve, poor fit]	–
COc1ccc(CCN(C)C(=O)c2oc3ccccc3c2C)cc1OC	inconclusive: 10 µM [inhibitor, partial curve, poor fit]	–
CCCN1C[C@H](CSC)C[C@H]2c3cccc4[nH]cc(c34)C[C@@H]21	inconclusive: 20.6 µM [inhibitor, partial curve, poor fit]	–
Cc1ccc(CCNC(=O)CCn2c(=O)c3cccn3c3ccc(F)cc32)cc1	inconclusive: 35.5 µM [inhibitor, single point]	–
CCNc1nnc(SCC(=O)c2cc(C)n(C3CC3)c2C)s1	–	inactive: 26.4%
Oc1csc(Cc2nc(-c3ccc(-c4ccccc4)cc3)cs2)n1	–	inactive: -4.03%
CC(C)NC(=O)Nc1cccc(Cl)c1	inconclusive: 7.94 µM [activator, partial curve, poor fit]	–
CNC(=O)c1cc(S(=O)(=O)N(C)C)ccc1Cl	–	inactive: 14%
CCOc1ccc(S(=O)(=O)NCC(c2ccc3c(c2)OCO3)N2CCN(C)CC2)cc1 (centres undefined)	active: 7.94 µM	–

Five of the compounds above, in CSV form.
Compound,Potency,"activity change, negative = inhibition"
Cc1ccc(NC(=O)C2C3C=CC4(O3)C2C(=O)N(CCCN2CCOCC2)C4C(=O)NC2CCCCC2)cc1Cl (centres undefined),"inconclusive: 2 µM [activator, partial curve, poor fit]",–
Cc1cc(C)c(C(=O)/C=C/c2ccc(C(C)C)cc2)c(=O)[nH]1,"inconclusive: 3.55 µM [inhibitor, partial curve, poor fit]",–
Cc1cc(=O)n2nc(N3CCC(C(=O)Nc4ccc(C(C)C)cc4)CC3)sc2n1,–,inactive: 2.27% [at 46.1 µM]
Oc1ccc(/C=N/NC(=S)Nc2cccnc2)cc1O,"inconclusive: 1.12 µM [activator, single point]",–
CCNc1nnc(SCC(=O)c2cc(C)n(C3CC3)c2C)s1,–,inactive: 26.4%
